These are yes or no findings as the source states them, for the method shown. Some results given as binding are weak or reduced against the parent protein; the word gives no strength.
Biological target: IL6R (UniProt P08887)
Test: peptide selection, Example 48

Chains of the proteins cited; added tags and fusions are not shown. Lines headed by an entry give the natural chain unless they say otherwise; changes in a name come on top. A line that says so, or that is headed by a name, gives the form on record, which may keep a tag or linker. Residues count along the entry.
UniProt P08887, residues 20-358: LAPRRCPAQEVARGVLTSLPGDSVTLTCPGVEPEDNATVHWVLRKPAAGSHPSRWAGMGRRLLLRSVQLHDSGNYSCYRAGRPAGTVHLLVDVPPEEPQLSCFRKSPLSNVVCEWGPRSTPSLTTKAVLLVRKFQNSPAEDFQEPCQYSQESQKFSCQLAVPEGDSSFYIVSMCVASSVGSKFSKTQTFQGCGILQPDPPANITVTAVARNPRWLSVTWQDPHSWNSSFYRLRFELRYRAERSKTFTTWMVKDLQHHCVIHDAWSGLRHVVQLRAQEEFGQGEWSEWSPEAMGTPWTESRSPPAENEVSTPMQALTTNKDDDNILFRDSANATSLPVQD
VEGF (P15692, form named): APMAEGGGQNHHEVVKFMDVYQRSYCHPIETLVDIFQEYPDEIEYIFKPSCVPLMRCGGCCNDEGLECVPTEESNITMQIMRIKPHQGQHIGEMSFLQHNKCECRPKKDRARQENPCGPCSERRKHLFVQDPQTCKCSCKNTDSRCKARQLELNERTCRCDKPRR

binding, binds:
WGCLCQQQGHFMECEITW [ILC285]
SEEEWTCFPYLCSKWLD [ILC265]
ESLLCIQHDVWVDCYIVE [ILC286]
SEEEWTCFPYLCSFWLQ [ILC280]
DLLYCEWEMVVRECHGTIGQ [ILC288]
SACEEAFAAYLEDGLM [ILC260]
SHEEWTCFPYLCSFWLE [ILC274]
SQEEWTCFPYLCRILVD [ILC254]
SEEEWTCFPYLCSLWLE [ILC281]
SDEEWTCFPYLCSEWLQ [ILC249]
FMVHCTWYDVTIDCVGPT [ILC283]
SEEEWTCFPYLCSKWVE [ILC259]
SHEEWTCFPYLCNLLSH [ILC276]
SDEEWTCFPYLCEYWLQ [ILC253]
SQDEWTCFPSLCSDLSE [ILC277]
QIVECWTEMDWHHCVLFF [ILC292]
SACEEAFAAYLEDSAV [ILC250]
SEEEWTCFPSLCKILLQ [ILC258]
SDEEWTCFPYLCDYWLH [ILC270]
SHEEWTCFPYLCSYWLE [ILC282]
SEEEWTCFPSLCSNLVQ [ILC262]
NSSFCYIHAIEWVCESSS [ILC287]
SDISCSYIDGWYQCLLHL [ILC284]
SHEEWTCFPYLCSYLLE [ILC257]
SEEEWTCFPYLCTYWVD [ILC269]
SDEEWTCFPYLCTDWLH [ILC275]
SHEEWTCFPYLCSFWAE [ILC263]
SHEEWTCFPSLCTLWSH [ILC264]

Biological target: VEGF (UniProt P15692)
Test: MRD identification, Example 48

binding, binds:
HCYVYVPWWLCP [VGF16]
WCNGFPPNYPCY [VGF49]
TCWKATPWWLCA [VGF34]
TCWKPAPWWLCA [VGF25]
HCWWLYTWDPCI [VGF15]
ACWKAAPWWLCA [VGF40]
MCWTPVPWWLCL [VGF17]
ECTWTMPWWFC [VGF24]
TCWKPTPWWLCA [VGF27]
ACWKAAPWWLCD [VGF35]
ACWKAMPWWFCT [VGF9]
TCWKATPWWLCD [VGF38]
CMWEMPWWFCQ [VGF2]
GCVKEVPWWLCI [VGF57]
MCWLVPGPMICH [VGF13]
WCWVPGPIQCY [VGF1]
FCMVQVPWWLCK [VGF10]
YCFWIPPEWYCV [VGF21]
GDWEWVWDWCF [VGF6]
WCAGFPPNYPCY [VGF47]
TCWKAAPWWLCA [VGF39]
GCWEWRPHWLCV [VGF23]
ACWKATPWWLCD [VGF32]
YCQPMWWNMACW [VGF20]
KCNFNPWKAACG [VGF29]
FCMYKPLMFLCP [VGF14]
ECRWVMPWWFCE [VGF8]
ACWKPAPWWLCD [VGF37]
TSWKAAAWGLCA [VGF31]
WCNGFPPNYPCA [VGF53]
TCWKAAPWWLCD [VGF36]
WCNGFPPNYPCS [VGF48]
TCTWVMPWWFCE [VGF3]
ICLWQMPWWFCE [VGF4]
TCWKPTPWWLCD [VGF18]
FYQWFEEQLM [VGF11]
TCWKPAPWWLCD [VGF30]
SCWFKIPWWLCP [VGF19]
